Results deposited as PubChem BioAssay AID504786 (Drosophila RNAi Screening Center, 2011).
The screen tested about 21,000 reagents; this is an unselected part of those with a known target gene and a result. 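Primary screen; positive scores mean lost reporter signal, so the sign may be inverted from the usual convention.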 A plus sign joins genes that one reagent is predicted to hit.

- Aim: 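Positive regulators of HIF-driven reporter output in Drosophila cells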 (primary screen)
- Cells: Drosophila S2 cells with a stable HIF luciferase reporter
- Knock-down reagent: long dsRNA against Drosophila genes, about 0.2 µg dsRNA per well of a 384-well plate
- Time to read-out: three days of knock-down, then 20 h of DFO before reading
- Challenge: desferrioxamine (DFO) at 100 µM, an iron chelator that mimics hypoxia, for 20 h
- Measurement: 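HIF reporter luminescence in cells given 100 µM DFO for 20 h, using the mouse ldh-a hypoxia-response element, scored as per-plate z-scores; higher means greater loss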
- Direction: z-score: higher = stronger loss of HIF reporter signal

Gene	PubChem SID	z-score, replicate 1	z-score, replicate 2
Sec24CD	SID104180092	-0.5	-0.4
GstE1	SID104187229	-0.4	-0.2
Vps11	SID104191701	-0.1	-0.2
CG4613	SID104190227	-0.2	-0.4
loaf	SID104188922	-0.3	-0.7
Yp3	SID104200094	-0.2	0.3
CG11414	SID104183902	-0.3	-0.5
Jwa	SID104181840	-0.3	-0.3
sqh	SID104198629	-0.4	-0.2
CG31495	SID104196554	-0.3	-0.7
CG16896	SID104184076	0.1	-0.4
PolH	SID104191592	-0.2	-0.2
CG6040	SID104195746	-0.2	-0.4
Cyp309a2	SID104180318	0	0
CG34396	SID104184037	-0.1	-0.4
CG34396	SID104184038	-0.1	0
CG13919	SID104188180	-0.2	-0.5
CR12798	SID104200870	0.2	0.4
RpL35	SID104198139	6.4	3.9
CG14352	SID104180174	-0.4	-0.4
spag4	SID104182765	-0.2	0.2
agt	SID104192403	-0.3	-0.4
Plap	SID104180470	-0.3	-0.3
Osi8	SID104192069	-0.2	-0.1
CG15577	SID104197857	-0.2	-0.2
Glg1	SID104191607	-0.2	-0.6
Glg1	SID104191608	-0.2	0.9
Glg1	SID104191609	-0.4	-0.4
CG4835	SID104190244	1.2	-1.3
fs(2)ltoPP43	SID104181859	-0.4	-0.5
Nnf1a	SID104186186	-0.3	0.1
CG5404	SID104195585	-0.2	0.1
Tango1	SID104181919	-0.4	-0.5

Looked up above.
For “z-score, replicate 2”, CG4613 [SID104190227] is entered as -0.4
For “z-score, replicate 1”, CG4835 [SID104190244] shows 1.2
Result of CR12798 [SID104200870] in “z-score, replicate 2”: 0.4
Under “z-score, replicate 2”, Jwa [SID104181840] has -0.3

Continued.
Gene	PubChem SID	z-score, replicate 1	z-score, replicate 2
CG5521	SID104195620	-0.1	-0.7
CG7378	SID104199833	-0.3	-0.4
His4:CG33883 + His4:CG33889 + His4:CG33899 + 20 more	SID104201060	0.3	-0.2
Paics	SID104200097	-0.3	-0.6
trem	SID104195367	1	0.2
Dysb	SID104190522	0.9	0.1
CG10834	SID104183485	-0.1	-0.2
C3G	SID104197537	-0.2	0
C3G	SID104197721	-0.2	-0.4
CG13323	SID104186152	-0.4	0
chk	SID104184786	-0.3	-0.1
CG13950	SID104180160	-0.3	-0.4
sing	SID104199322	-0.4	-0.6
CG13028	SID104189700	-0.3	0.5
PGAP3	SID104184781	-0.2	-0.9
CG11975	SID104194244	-0.3	-0.4
AnxB11	SID104199123	-0.1	0.5
U2af38	SID104180588	2.9	3.2
Ets96B	SID104195919	0.3	1.5
twr	SID104192283	-0.5	-0.9
CG5274	SID104191566	-0.3	-0.5
Nepl13	SID104195424	-0.2	-0.2
CG43322	SID104182072	-0.3	-0.5
